Earlier results on one compound are cited in patent US20090068174A1, “THERAPEUTIC ALKALINE PROTEASE COMPOSITIONS AND USE IN FACILITATING THE TRANSPORT OF AGENTS ACROSS THE GASTROINTESTINAL MUCOSAL LINING” (Kansas University Medical Center Research Institute, Inc., priority 2007, published 2009).

Read-outs that look alike come from different tables or passages of the source.

For data set [1] the following is noted: Table 4, cited from earlier work.
For data set [2] the following is noted: Table 1; cited from earlier work.

On to `[2H]N[C@@H](CCCCN)C(=O)O` (single isomer, unassigned) [Deuterolysin, reference compound], for which the Metal requirements result in data set [1] is recorded as “Zn, Ca, Co”. Besides, the results for the pH optimum entry in data set [1] (pH optima vary with substrate) and in data set [2] were “pH 6-8” and 5.0-7.0, respectively.
